{"source": "PubChem BioAssay AID504808 (Drosophila RNAi Screening Center, 2011)", "test": "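Chromatin factors that keep E2F targets switched off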 (primary screen)", "system": "Drosophila S2 cells", "knock-down reagent": "long dsRNA against Drosophila genes", "detection": "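Dual luciferase plate measurements; E2F-specific signal taken as firefly over Renilla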", "direction": "E2F firefly: higher = more E2F reporter activity; Renilla normaliser: higher = more normaliser reporter signal", "hit rule": "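a knock-down counted as active when the firefly/Renilla E2F signal rose above 50%, a threshold chosen arbitrarily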", "note": "The deposit covers about 21,000 reagents; below is an unselected part of those with a known target gene and a result. In the full data, 18 (0.084%) were called active. 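Raw counts without plate normalisation, one of two replicates; the ratio scores behind the calls were not deposited.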 A number with no mark means an inactive call. A plus sign joins genes that one reagent is predicted to hit. Not stated in the record: the amount of reagent, the time to read-out."}
{"gene":"dop","DRSC id":"DRSC10655","E2F firefly, rep 1":57948,"Renilla normaliser, rep 1":3549}
{"gene":"Sr-CI","DRSC id":"DRSC00790","E2F firefly, rep 1":53729,"Renilla normaliser, rep 1":3711}
{"gene":"CG1394","DRSC id":"DRSC19539","E2F firefly, rep 1":1.10e5,"Renilla normaliser, rep 1":5061}
{"gene":"pkaap","DRSC id":"DRSC01925","E2F firefly, rep 1":1.01e5,"Renilla normaliser, rep 1":4500}
{"gene":"Ir75b","DRSC id":"DRSC10189","E2F firefly, rep 1":1.69e5,"Renilla normaliser, rep 1":8209}
{"gene":"pelo","DRSC id":"DRSC03588","E2F firefly, rep 1":85706,"Renilla normaliser, rep 1":3571}
{"gene":"CG14851","DRSC id":"DRSC14975","E2F firefly, rep 1":1.34e5,"Renilla normaliser, rep 1":7433}
{"gene":"CG18547","DRSC id":"DRSC15345","E2F firefly, rep 1":1.33e5,"Renilla normaliser, rep 1":5910}
{"gene":"L (retired record)","DRSC id":"DRSC05966","E2F firefly, rep 1":94495,"Renilla normaliser, rep 1":4391}
{"gene":"L (retired record)","DRSC id":"DRSC05967","E2F firefly, rep 1":77076,"Renilla normaliser, rep 1":4226}
{"gene":"mnb","DRSC id":"DRSC20058","E2F firefly, rep 1":1.20e5,"Renilla normaliser, rep 1":6655}
{"gene":"mnb","DRSC id":"DRSC20353","E2F firefly, rep 1":1.44e5,"Renilla normaliser, rep 1":6316}
{"gene":"Cyp9b2","DRSC id":"DRSC07390","E2F firefly, rep 1":1.33e5,"Renilla normaliser, rep 1":5086}
{"gene":"CG13919","DRSC id":"DRSC08388","E2F firefly, rep 1":92518,"Renilla normaliser, rep 1":4267}
{"gene":"ssp2","DRSC id":"DRSC11052","E2F firefly, rep 1":1.07e5,"Renilla normaliser, rep 1":3755}
{"gene":"GstD3","DRSC id":"DRSC15571","E2F firefly, rep 1":1.45e5,"Renilla normaliser, rep 1":7076}
{"gene":"Tasp1","DRSC id":"DRSC10495","E2F firefly, rep 1":69328,"Renilla normaliser, rep 1":3127}
{"gene":"Eip78C","DRSC id":"DRSC11864","E2F firefly, rep 1":86135,"Renilla normaliser, rep 1":4488}
{"gene":"CG34030","DRSC id":"DRSC08866","E2F firefly, rep 1":1.27e5,"Renilla normaliser, rep 1":5363}
{"gene":"CG5567","DRSC id":"DRSC10517","E2F firefly, rep 1":75390,"Renilla normaliser, rep 1":4063}
{"gene":"Polr3K + Tcs1","DRSC id":"DRSC05988","E2F firefly, rep 1":95919,"Renilla normaliser, rep 1":3628}
{"gene":"CG30046","DRSC id":"DRSC06691","E2F firefly, rep 1":99764,"Renilla normaliser, rep 1":4792}
{"gene":"Cyp6g2","DRSC id":"DRSC07387","E2F firefly, rep 1":1.06e5,"Renilla normaliser, rep 1":4612}
{"gene":"Roc1b + Cdc5","DRSC id":"DRSC08687","E2F firefly, rep 1":1.03e5,"Renilla normaliser, rep 1":4210}
{"gene":"CG2100","DRSC id":"DRSC12303","E2F firefly, rep 1":82586,"Renilla normaliser, rep 1":3497}
{"gene":"Dpck","DRSC id":"DRSC12575","E2F firefly, rep 1":1.25e5,"Renilla normaliser, rep 1":7137}
{"gene":"naz","DRSC id":"DRSC14790","E2F firefly, rep 1":1.43e5,"Renilla normaliser, rep 1":8535}
{"gene":"naz","DRSC id":"DRSC16199","E2F firefly, rep 1":1.49e5,"Renilla normaliser, rep 1":7821}
